In the supplement of paper PMC6078165:
The reference is the same well before dosing, and untreated signal decays as well.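 Labels refer to human fibroblasts, largely primary: uterine (C12385, HUF), lung (H6013), bone (Hs27A), adrenal (HADF), skin (WS1), plus mammary HMF and breast cancer-associated Hs343T. Cancer lines are basal-like or mesenchymal-like triple-negative breast cancer. The paper counts as hits responses shifting over 3x the replicate standard deviation. The tissue of the other fibroblasts is not given here.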

System: MDAMB231
Experiment: relative JC-1 red fluorescence (viability) vs pre-drug, coculture with fibroblast (fraction); higher = more viable cancer cells
Procedure: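 JC-1 labelled TNBC cells cocultured 1:1 (1,500 cells each) with CellTrace Violet stained primary or stromal fibroblasts in 384-well plates in FluoroBrite medium, treated with one of 42 anticancer drugs at 0.1, 1, 10 or 100 uM. JC-1 red fluorescence (mitochondrial integrity in cancer cells only) was read by plate reader every 8 h for 72 h. Values are normalised to each well's pre-drug value. The stock of one drug was tenfold lower, so its dose labels may be too high.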

CCC1=C[C@@H]2CN(C1)Cc1c([nH]c3ccccc13)[C@@](C(=O)OC)(c1cc3c(cc1OC)N(C)[C@H]1[C@@](O)(C(=O)OC)[C@H](OC(C)=O)[C@]4(CC)C=CCN5CC[C@]31[C@@H]54)C2 [Vinorelbine]
relative JC-1 red fluorescence
Settings	8 h	16 h	24 h	32 h	40 h	48 h	56 h	64 h	72 h
0.1 µM, coculture fibroblast: C12385	0.828	0.737	0.712	0.631	0.565	0.54	0.512	0.535	0.537
0.1 µM, coculture fibroblast: H6013	0.893	0.78	0.767	0.762	0.7176	0.708	0.687	0.684	0.662
0.1 µM, coculture fibroblast: H6019	0.779	0.714	0.7102	0.664	0.634	0.62177	0.602	0.617	0.598
0.1 µM, coculture fibroblast: H6076	0.91656	0.8	0.736	0.702	0.657	0.614	0.581	0.568	0.563
0.1 µM, coculture fibroblast: H6231	0.941	0.8467	0.712	0.6616	0.5975	0.5677	0.508	0.484	0.453
0.1 µM, coculture fibroblast: HADF	0.9014	0.818	0.741	0.687	0.628	0.582	0.547	0.529	0.4852
0.1 µM, coculture fibroblast: HCFa	0.8935	0.795	0.744	0.685	0.61	0.552	0.5124	0.47699	0.426
0.1 µM, coculture fibroblast: HCPF	0.9343	0.8249	0.713	0.6844	0.6233	0.578	0.523	0.496	0.482
0.1 µM, coculture fibroblast: HHSteC	0.932	0.878	0.85	0.812	0.778	0.744	0.692	0.67	0.624
0.1 µM, coculture fibroblast: HMF	0.912	0.802	0.715	0.673	0.616	0.569	0.524	0.507	0.494
0.1 µM, coculture fibroblast: HPFa	0.9372	0.85	0.782	0.716	0.674	0.633	0.576	0.545	0.513
0.1 µM, coculture fibroblast: HUF	0.917	0.797	0.812	0.687	0.617	0.602	0.554	0.559	0.536
0.1 µM, coculture fibroblast: Hs5	0.8712	0.7957	0.75	0.699	0.6663	0.6173	0.5911	0.5702	0.555
0.1 µM, coculture fibroblast: Hs27A	0.9135	0.8573	0.7941	0.725	0.6739	0.6104	0.5973	0.5647	0.53465
0.1 µM, coculture fibroblast: Hs343T	0.91	0.788	0.689	0.652	0.594	0.546	0.492	0.464	0.448
0.1 µM, coculture fibroblast: WS1	0.796	0.711	0.648	0.595	0.553	0.523	0.484	0.493	0.49
1 µM, coculture fibroblast: C12385	0.795	0.733	0.718	0.646	0.565	0.544	0.509	0.519	0.508
1 µM, coculture fibroblast: H6013	0.899	0.803	0.789	0.775	0.723	0.706	0.68	0.662	0.619
1 µM, coculture fibroblast: H6019	0.82	0.794	0.796	0.778	0.764	0.76	0.744	0.761	0.752
1 µM, coculture fibroblast: H6076	0.882	0.8014	0.7761	0.75	0.708	0.668	0.646	0.631	0.615
1 µM, coculture fibroblast: H6231	0.947	0.864	0.7718	0.729	0.665	0.634	0.583	0.565	0.533
1 µM, coculture fibroblast: HADF	0.877	0.801	0.777	0.7475	0.699	0.667	0.632	0.619	0.572
1 µM, coculture fibroblast: HCFa	0.911	0.838	0.808	0.752	0.699	0.652	0.604	0.571	0.511
1 µM, coculture fibroblast: HCPF	0.885	0.78	0.7405	0.7247	0.666	0.624	0.593	0.57	0.545
1 µM, coculture fibroblast: HHSteC	0.9114	0.897	0.856	0.806	0.766	0.722	0.675	0.647	0.599
1 µM, coculture fibroblast: HMF	0.904	0.82	0.772	0.733	0.674	0.634	0.584	0.562	0.5325
1 µM, coculture fibroblast: HPFa	0.956	0.919	0.878	0.8131	0.7846	0.756	0.701	0.676	0.634
1 µM, coculture fibroblast: HUF	0.889	0.77	0.761	0.642	0.578	0.549	0.502	0.497	0.474
1 µM, coculture fibroblast: Hs5	0.889	0.8177	0.775	0.734	0.691	0.634	0.595	0.568	0.539
1 µM, coculture fibroblast: Hs27A	0.9323	0.86184	0.8199	0.7921	0.733	0.672	0.66	0.63	0.583
1 µM, coculture fibroblast: Hs343T	0.909	0.784	0.753	0.715	0.659	0.62	0.572	0.555	0.535
1 µM, coculture fibroblast: WS1	0.798	0.726	0.685	0.614	0.559	0.532	0.503	0.511	0.498
10 µM, coculture fibroblast: C12385	0.76	0.805	0.635	0.747	0.687	0.66	0.609	0.571	0.539
10 µM, coculture fibroblast: H6013	0.9032	0.901	0.8706	0.87	0.818	0.762	0.761	0.7333	0.6866
10 µM, coculture fibroblast: H6019	0.849	0.767	0.724	0.782	0.758	0.706	0.727	0.68	0.653
10 µM, coculture fibroblast: H6076	0.947	0.929	0.885	0.863	0.797	0.766	0.71	0.67	0.639
10 µM, coculture fibroblast: H6231	0.9892	0.972	0.917	0.8632	0.8193	0.793	0.739	0.704	0.655
10 µM, coculture fibroblast: HADF	0.921	0.917	0.908	0.888	0.851	0.783	0.784	0.766	0.692
10 µM, coculture fibroblast: HCFa	0.9188	0.9103	0.8903	0.876	0.828	0.7648	0.754	0.706	0.663
10 µM, coculture fibroblast: HCPF	0.9632	0.916	0.873	0.863	0.825	0.791	0.75	0.713	0.684
10 µM, coculture fibroblast: HHSteC	0.927	0.932	0.914	0.883	0.837	0.788	0.757	0.74	0.698
10 µM, coculture fibroblast: HMF	0.92	0.926	0.911	0.84	0.824	0.851	0.854	0.821	0.766
10 µM, coculture fibroblast: HPFa	0.88	0.859	0.843	0.871	0.772	0.746	0.814	0.697	0.785
10 µM, coculture fibroblast: HUF	0.879	0.8	0.809	0.723	0.674	0.645	0.6	0.59	0.568
10 µM, coculture fibroblast: Hs5	0.806	0.823	0.92	0.89	0.853	0.807	0.754	0.722	0.677
10 µM, coculture fibroblast: Hs27A	0.926	0.89	0.865	0.851	0.808	0.712	0.745	0.7304	0.6913
10 µM, coculture fibroblast: Hs343T	0.73	0.83805	0.903	0.884	0.906	0.805	0.791	0.822	0.804
10 µM, coculture fibroblast: WS1	0.7908	0.8004	0.686	0.715	0.678	0.637	0.59	0.568	0.543
100 µM, coculture fibroblast: C12385	0.692	0.596	0.398	0.265	0.202	0.166	0.135	0.127	0.1
100 µM, coculture fibroblast: H6013	0.9509	0.754	0.421	0.286	0.228	0.207	0.171	0.146	0.109
100 µM, coculture fibroblast: H6019	0.868	0.639	0.424	0.281	0.221	0.197	0.1638	0.15044	0.1226
100 µM, coculture fibroblast: H6076	0.791	0.828	0.484	0.39	0.329	0.284	0.251	0.23	0.199
100 µM, coculture fibroblast: H6231	0.887	0.934	0.608	0.411	0.307	0.266	0.212	0.193	0.164
100 µM, coculture fibroblast: HADF	0.943	0.814	0.509	0.313	0.234	0.21	0.167	0.145	0.107
100 µM, coculture fibroblast: HCFa	0.921	0.899	0.674	0.411	0.283	0.243	0.2	0.179	0.141
100 µM, coculture fibroblast: HCPF	0.852	0.871	0.5106	0.40542	0.298	0.255	0.218	0.183	0.157
100 µM, coculture fibroblast: HHSteC	0.848	0.8444	0.498	0.308	0.24	0.22	0.175	0.154	0.121
100 µM, coculture fibroblast: HMF	0.8845	0.769	0.7	0.489	0.354	0.303	0.239	0.22	0.188
100 µM, coculture fibroblast: HPFa	0.986	0.836	0.523	0.362	0.31	0.277	0.227	0.201	0.166
100 µM, coculture fibroblast: HUF	0.853	0.717	0.508	0.312	0.221	0.198	0.153	0.139	0.115
100 µM, coculture fibroblast: Hs5	0.849	0.835	0.558	0.413	0.319	0.251	0.214	0.173	0.144
100 µM, coculture fibroblast: Hs27A	0.9276	0.823	0.589	0.402	0.31	0.287	0.247	0.221	0.183
100 µM, coculture fibroblast: Hs343T	0.829	0.945	0.635	0.4646	0.331	0.269	0.217	0.191	0.162
100 µM, coculture fibroblast: WS1	0.772	0.497	0.26	0.142	0.091	0.0566	0.0282	0.0188	0.00089
